± gives the standard deviation. This is a selection; strong and weak results do not stand in their true shares. Many entries were measured with a wide error.
Columns and labels:
[1] = system: MILI (PIWIL2) piRISC loaded with piRNA #1 (26 nt); test: pre-steady-state target cleavage rate (min^-1); higher = faster piRNA-guided slicing of the target; settings: guide: piRNA #1 5'p-UGAGGUAGUAGGUUGUAUAGUAUCCA; auxiliary factor: 500 nM mouse GTSF1
Summary of the method: (§1)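 The pre-steady-state cleavage rate came from a burst-and-steady-state fit to pooled data from three Cleave-'n-Seq trials, in which uncleaved targets were sequenced and normalised to depth and to weakly complementary targets. Each reaction held 0.1 nM transcribed, DNA-blocked target RNA library and 1 nM active affinity-purified piRISC carrying one synthetic guide, with or without 500 nM GTSF1 partner protein, in HEPES–potassium acetate buffer at 33 °C for 0–8 or 0–960 min. k3 was capped at 0.0001 min^-1.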

[2] = system: EfPiwi piRISC loaded with piRNA #1 (26 nt); test: pre-steady-state target cleavage rate (min^-1); guide: piRNA #1 5'p-UGAGGUAGUAGGUUGUAUAGUAUCCA; MIWI and MILI are mouse PIWI proteins and EfPiwi is from a freshwater sponge; tags in brackets are library labels; higher = faster piRNA-guided slicing of the target; settings: auxiliary factor: 500 nM Ephydatia muelleri Gtsf1
Summary of the method: as §1

Sequence	pre-steady-state target cleavage rate [1]	pre-steady-state target cleavage rate [2]
GGAGACCUAUGAUAUCAACGAACUACCUCA	0.000223 ± 0.014	0.000184 ± 0.019
GGAGACGAUACUAUACAACCAACUUCCUCA	0.00374 ± 0.0027	0.00381 ± 0.0022
GGAGACCUAUGAUAUCAACCUUCAACCUCA	0.000532 ± 0.0088	0.000202 ± 0.012
GGAGACCAUAGUAUACAAGCUACUACCUCA	0.16 ± 0.015	0.00148 ± 0.0031
GGAGACCUUACUAUACAACGUACUUCCUCA	0.0242 ± 0.0053	0.00315 ± 0.0021
GGAGACCUAACUAUUCAACCUACUACCUCA	0.138 ± 0.022	0.00358 ± 0.0036
GGAGACCUUUACUAUACAACCUACUACCUCA	0.154 ± 0.012	0.00394 ± 0.0042
GGAGACCUUACUAUACAAGCUACUACCACA	0.266 ± 0.023	0.00275 ± 0.0027
GGAGACCUAUGAUAUGUACCUAUCUACCUCA	0.000279 ± 0.013	0.000133 ± 0.018
GGAGACCUAUGAUUACAACCUACAACGUCA	0.000689 ± 0.0076	0.000192 ± 0.01
GGAGACCUAACUAUACAACCAACUACCUGA	0.00203 ± 0.0074	0.00262 ± 0.0038
GGAGACCUAUGAUAUGAUACCUACUACCUCA	0.000217 ± 0.011	0.000765 ± 0.0072
GGAGACCUAUCUAUUCAACCUACUACGUCA	0.0451 ± 0.0089	0.000925 ± 0.0053
GGAGAGGAUAGUAUACAACGUACUACCUCA	0.00214 ± 0.0048	0.000966 ± 0.0042
GGAGACCUAUGAUAAGAACCUACUAGCUCA	0.000168 ± 0.018	0.000145 ± 0.018
GGAGACCUAUGAUAUGACCCUACUACCUCA	0.000203 ± 0.014	0.000585 ± 0.011
GGAGACCUUACUAUAGAACCUACUAGCUCA	0.00445 ± 0.0038	0.000717 ± 0.0058
GGAGACCUUACUAUAGAACCUUCUACCUCA	0.0024 ± 0.0027	0.00177 ± 0.0043
GGAGACCAUACUAUAGAACCAACUACCUCA	0.00109 ± 0.0069	0.000572 ± 0.0087
GGAGACCAUACUAUACAACGUUCUACCUCA	0.00208 ± 0.0043	0.00334 ± 0.0035

Sequence	pre-steady-state target cleavage rate [1]	pre-steady-state target cleavage rate [2]
GGAGACCUUACUAUACAAACUACUACCUCA	0.204 ± 0.014	0.00215 ± 0.0025
GGAGAGGAUACUAUACAAGGAUGAUGGAGA [g13:g25:cont:t1A]	0.000294 ± 0.013	0.000303 ± 0.013
GGAGACCAUACUAUACAACCUAGAACCUCA	0.00259 ± 0.0028	0.00223 ± 0.004
GGAGACCUAACUAUACAACCUAGAUCCUCA	0.00302 ± 0.0057	0.000831 ± 0.0052
GGAGAGGAUACUAUACAACGUACUUCCUCA	0.00271 ± 0.0043	0.00375 ± 0.0013
GGAGACCUAACUAUACAACCAACUACGUCA	0.00208 ± 0.0062	0.00371 ± 0.0045
GGAGAGGAUAGUAUACAAGCUACUACCUCA	0.00302 ± 0.0046	0.00104 ± 0.0049
GGAGACCUAUCUAUACAACGCUACUACCUCA	0.00135 ± 0.0054	0.00112 ± 0.0073
GGAGACCUUACUAUACAUCCUACUAGCUCA	0.2 ± 0.024	0.00233 ± 0.0027
GGAGACCUAUCUAUACAACCUUGUACCUCA	0.00134 ± 0.0058	0.000745 ± 0.0058
GGAGACCAUACUAUACAACUCUACUACCUCA	0.000211 ± 0.0096	0.000815 ± 0.0091
GGAGACGAUAGUAUACAACCUACUAGCUCA	0.0976 ± 0.021	0.00161 ± 0.0018
GGAGACCUAACGAUACAACCUACUACCUCA	0.257 ± 0.053	0.0136 ± 0.0071
GGAGACCUAAGCUAUACAACCUACUACCUCA	0.141 ± 0.028	0.184 ± 0.066
GGAGACCUUACUUUAGAACCUACUACCUCA	0.13 ± 0.01	0.000986 ± 0.0046
GGAGACCUAUGAUAUGUUCCUAGCUACCUCA	0.000162 ± 0.015	0.000149 ± 0.016
GGAGUGGAUACUAUACAUCCUACUACCUCA	0.267 ± 0.014	0.124 ± 0.044
GGAGUGGAUACUAUACAACCCACUACCUCA	0.0174 ± 0.0024	0.00487 ± 0.0019
GGAGACCUAUCUAUACAAGCCUACUACCUCA	0.00108 ± 0.0076	0.00205 ± 0.0039
GGAGACCUAUCUAUACAACCUACUAGCACA	0.0357 ± 0.012	0.00164 ± 0.007

Full records from above:
GGAGACCUAACUAUACAACCUAGAUCCUCA in the list: pre-steady-state target cleavage rate [1]: 0.00302 ± 0.0057; pre-steady-state target cleavage rate [2]: 0.000831 ± 0.0052
GGAGUGGAUACUAUACAUCCUACUACCUCA in the list: pre-steady-state target cleavage rate [1]: 0.267 ± 0.014; pre-steady-state target cleavage rate [2]: 0.124 ± 0.044
GGAGACCUAUCUAUACAACCUUGUACCUCA in the list: pre-steady-state target cleavage rate [1]: 0.00134 ± 0.0058; pre-steady-state target cleavage rate [2]: 0.000745 ± 0.0058
GGAGACCUAUCUAUACAACCUACUAGCACA in the list: pre-steady-state target cleavage rate [1]: 0.0357 ± 0.012; pre-steady-state target cleavage rate [2]: 0.00164 ± 0.007

The listing continues.

Sequence	pre-steady-state target cleavage rate [1]	pre-steady-state target cleavage rate [2]
GGAGACCUUACUAUACAACCUACUACGCUCA	0.256 ± 0.019	0.00311 ± 0.004
GGAGUGGAUACUUUAGAACCUACUACCUCA	0.116 ± 0.0096	0.00079 ± 0.0032
GGAGAGGAUACUAUACUACCUACUACGUCA	0.0806 ± 0.01	0.00184 ± 0.0025
GGAGACCUAUCUAUACAACCUACUUGGUCA	0.001 ± 0.0061	0.00107 ± 0.005
GGAGACCUUACUAUACAACCUUCUACGUCA	0.00198 ± 0.0044	0.00265 ± 0.003
GGAGACCUAAACUAUACAACCUACUACCUCA	0.148 ± 0.018	0.00974 ± 0.0047
GGAGUGGAUACUAUACAACCUACUUACCUCA	0.133 ± 0.011	0.00852 ± 0.0034
GGAGACCUAUCUAUACAACCUACAACCUCA	0.0886 ± 0.013	0.00366 ± 0.0032
GGAGACCUAUGAAAACAACCAACUACCUCA	0.0019 ± 0.0046	0.000175 ± 0.016
GGAGACCUAUCUAUUCAACCUAGUACCUCA	0.00955 ± 0.0033	0.0004 ± 0.0056
GGAGACCUAUGAUAUCAACCAACUAGCUCA	0.000275 ± 0.013	0.000232 ± 0.01
GGAGACCUAUGAUAAGAACGUACUACCUCA	0.000249 ± 0.014	0.00121 ± 0.0078
GGAGACCUAACUAAACAACCUACUACGUCA	0.0404 ± 0.019	0.001 ± 0.0085
GGAGACCUAACUAUACAACCUACUAGCUGA	0.00434 ± 0.0053	0.00306 ± 0.0047
GGAGACGAAACUAUACAACCUACAACCUCA	0.133 ± 0.031	0.00368 ± 0.0027
GGAGACCUAACUAUACAACUUACUACCUCA	0.0179 ± 0.0043	0.00241 ± 0.0044
GGAGACCUAUGAUAUGAAGCCUACUACCUCA	0.0001 ± 0.029	0.001 ± 0.0052
GGAGACCAUACUAAACAACCUAGUACCUCA	0.0362 ± 0.0083	0.00435 ± 0.0053
GGAGUGGAUACUAAAGAACCUACUACCUCA	0.167 ± 0.011	0.000433 ± 0.006
